Patent US20240325555A1
Results are given in words; binding and its absence hold for the method and conditions named. Some binding calls cover weakened binding; strength is not graded here.

Sequences of proteins named here, by UniProt entry; tags and fusion partners are left off. Residues count along the entry.
UniProt Q13433, residues 29-755: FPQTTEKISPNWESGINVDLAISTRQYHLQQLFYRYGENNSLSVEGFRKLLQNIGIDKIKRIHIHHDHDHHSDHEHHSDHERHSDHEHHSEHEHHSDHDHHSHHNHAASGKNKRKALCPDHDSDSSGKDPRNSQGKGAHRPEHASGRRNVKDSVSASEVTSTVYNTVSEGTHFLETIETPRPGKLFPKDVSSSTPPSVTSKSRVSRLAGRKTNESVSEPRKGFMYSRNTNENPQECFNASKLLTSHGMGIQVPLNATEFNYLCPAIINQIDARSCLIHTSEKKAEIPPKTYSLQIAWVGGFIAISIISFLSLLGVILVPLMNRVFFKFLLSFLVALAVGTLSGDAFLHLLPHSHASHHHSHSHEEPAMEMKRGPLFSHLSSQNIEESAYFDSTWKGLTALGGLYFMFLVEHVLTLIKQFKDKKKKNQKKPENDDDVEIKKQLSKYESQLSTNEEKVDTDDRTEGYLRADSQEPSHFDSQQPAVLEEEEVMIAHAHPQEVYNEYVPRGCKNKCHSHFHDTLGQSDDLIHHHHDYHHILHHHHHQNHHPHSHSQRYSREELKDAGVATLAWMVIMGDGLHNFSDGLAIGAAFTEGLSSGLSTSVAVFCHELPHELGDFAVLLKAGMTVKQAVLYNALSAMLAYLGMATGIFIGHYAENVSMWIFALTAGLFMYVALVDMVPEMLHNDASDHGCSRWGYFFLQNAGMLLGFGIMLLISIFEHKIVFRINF

What was measured:
[1] = target: human LIV-1 (human) (UniProt Q13433); assay: FACS, HEK293/H_LIV-1 cells
[2] = target: human LIV-1 (human) (UniProt Q13433); assay: FACS, human LIV-1 expressing cells
[3] = target: human LIV-1 (human) (UniProt Q13433); assay: FACS, HEK293/H_LIV-1 and BT20/H_LIV-1 cells

Measured: binding

B1: 290F10G10.p1.Z2 (antibody, V domains shown)
VH: EVQLVQSGAEVKKPGASVKVSCKASGYTFTSYWIHWVRQAPGQGLEWMGTIYPGDADTRSTQKFKDRVTMTADTSTSTVYMELSSLRSEDTAVYYCARSLIHDDYDKYYFDYWGQGTTVTVSS
VL: DIQMTQSPSSLSASVGDRVTITCKARQDINKYIAWYQQKPGKAPKLLIHYTSILQPGIPSRFSGSGSGRDYTFTISSLQPEDIATYYCLQYDYFFTFGGGTKVEIK
binds: all assays above
